Results are given in words; binding and its absence hold for the method and conditions named. Binding seen in cells or lysates may run through a third protein. A yes stands for co-enrichment or nearness to the bait. Other partners may have been found. Tags and fused reporters may be left off the sequences shown.

The target of experiment [1] is T1, Venus-GABAA receptor α1 subunit fusion (inhibitory synapse affinity tag), P62812.
T1 chain: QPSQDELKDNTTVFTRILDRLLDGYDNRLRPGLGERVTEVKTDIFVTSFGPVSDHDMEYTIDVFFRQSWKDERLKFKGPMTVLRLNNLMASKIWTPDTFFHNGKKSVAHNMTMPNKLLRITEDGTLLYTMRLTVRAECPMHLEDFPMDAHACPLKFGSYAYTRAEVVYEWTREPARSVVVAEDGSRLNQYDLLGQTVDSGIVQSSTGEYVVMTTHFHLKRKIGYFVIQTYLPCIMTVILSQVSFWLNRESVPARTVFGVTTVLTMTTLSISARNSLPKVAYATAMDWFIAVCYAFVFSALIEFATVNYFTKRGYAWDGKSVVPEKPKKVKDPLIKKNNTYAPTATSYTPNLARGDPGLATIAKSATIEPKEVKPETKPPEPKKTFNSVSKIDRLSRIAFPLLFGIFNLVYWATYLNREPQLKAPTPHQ
The experiment can be described thus: affinity purification with mass spectrometry; same immunopurification via VGABAARα1 (tagged sample) or eGFP (control sample); FASP II on-membrane digestion, LC-MS/MS on LTQ-Orbitrap XL, X!Tandem search, cutoff E = 10^-4; two replicates; proteins found with eGFP subtracted. The conditions noted are these: remark: other sources report otherwise.

In experiment [2] the target is Venus-GABAA receptor α1 subunit fusion (inhibitory synapse affinity tag) (UniProt P62812). Described as above.

B1: Gephyrin, Q8BUV3 1-769 (protein)
chain: MATEGMILTNHDHQIRVGVLTVSDSCFRNLAEDRSGINLKDLVQDPSLLGGTISAYKIVPDEIEEIKETLIDWCDEKELNLILTTGGTGFAPRDVTPEATKEVIEREAPGMALAMLMGSLNVTPLGMLSRPVCGIRGKTLIINLPGSKKGSQECFQFILPALPHAIDLLRDAIVKVKEVHDELEDLPSPPPPLSPPPTTSPHKQTEDKGVQCEEEEEEKKDSGVASTEDSSSSHITAAALAAKIPDSIISRGVQVLPRDTASLSTTPSESPRAQATSRLSTASCPTPKQIRRPDESKGVASRVGSLKARLPSCSSTYSVSEVQSRCSSKENILRASHSAVDITKVARRHRMSPFPLTSMDKAFITVLEMTPVLGTEIINYRDGMGRVLAQDVYAKDNLPPFPASVKDGYAVRAADGPGDRFIIGESQAGEQPTQTVMPGQVMRVTTGAPIPCGADAVVQVEDTELIRESDDGTEELEVRILVQARPGQDIRPIGHDIKRGECVLAKGTHMGPSEIGLLATVGVTEVEVNKFPVVAVMSTGNELLNPEDDLLPGKIRDSNRSTLLATIQEHGYPTINLGIVGDNPDDLLNALNEGISRADVIITSGGVSMGEKDYLKQVLDIDLHAQIHFGRVFMKPGLPTTFATLDIDGVRKIIFALPGNPVSAVVTCNLFVVPALRKMQGILDPRPTIIKARLSCDVKLDPRPEYHRCILTWHHQEPLPWAQSTGNQMSSRLMSMRSANGLLMLPPKTEQYVELHKGEVVDVMVIGRL
Take B1: the binding result in experiment [1] is on record as “binds”.

B2: GABAA receptor α4 subunit, Q9D6F4 36-552 (receptor)
chain: QNSKDEKLCPENFTRILDSLLDGYDNRLRPGFGGPVTEVKTDIYVTSFGPVSDVEMEYTMDVFFRQTWIDKRLKYDGPIEILRLNNMMVTKVWTPDTFFRNGKKSVSHNMTAPNKLFRIMRNGTILYTMRLTISAECPMRLVDFPMDGHACPLKFGSYAYPKSEMIYTWTKGPEKSVEVPKESSSLVQYDLIGQTVSSETIKSITGEYIVMTVYFHLRRKMGYFMIQTYIPCIMTVILSQVSFWINKESVPARTVFGITTVLTMTTLSISARHSLPKVSYATAMDWFIAVCFAFVFSALIEFAAVNYFTNIQMQKAKKKISKPPPEVPAAPVLKEKHTETSLQNTHANLNMRKRTNALVHSESDVKSRTEVGNHSSKTSAVQESSEATPKAHLASSPNPFSRANAAETMSAAARGLSSAASPSPHGTLRPASLGSASTRPAFGSRLGRIKTTVNTTGAAGNVSATPPPPAPPPSGSGTSKIDKYARILFPVTFGAFNMVYWVVYLSKDTMEKSESLM
Regarding B2, the binding result in experiment [1] is listed as “binds”.

B3: lipoma HMGIC fusion partner-like 4 (protein, UniProt Q5U4E0 1-247)
chain: MLPSQEASKLYHEHYMRNSRAIGVLWAIFTICFAIINVVVFIQPYWVGDSVSTPKPGYFGLFHYCVGSGLAGRELTCRGSFTDFSTIPSSAFKAAAFFVLLSMVLILGCITCFALFFFCNTATVYKICAWMQLLAALCLVLGCMIFPDGWDAETIRDMCGAKTGKYSLGDCSVRWAYILAIIGILNALILSFLAFVLGNRQTDLLQEELKQENKDFVGTTVSSVLRPGGDVSGWGVLPCPVAHTQGP
Take B3: in experiment [2], the binding result is “binds”.

The values are drawn from publication PMC3387162.
